The shares of active, inactive and inconclusive entries below differ from those in the screen. Potencies beside an inconclusive call are fits to weak or partial responses and may not hold up. Calls of active or inactive are those of the source. The calls were made as follows: active = hit-call score of the fitted dose curve at least 0.9, where 1 is the maximum; inconclusive = response in the unintended direction; inactive = score below 0.9.
Read-out: alkyl and aryl transferase (GSTA2), GSTA2 (gene 2939)
Assay: CLD_GSTA2_6hr: CellzDirect (CLD) Gene Expression Assay for alkyl and aryl transferase (GSTA2) at 6 hours (AID 2283666)
How it was run: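 Primary human hepatocytes from two donor preparations were dosed daily with fresh compound at multiple concentrations, 0.2% DMSO vehicle. GSTA2 mRNA was measured at 6 hours by qNPA chemiluminescence; induction fitted relative to DMSO, with cytotoxicity flagged morphologically.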

| Structure (SMILES) | AC50 | outcome |
| --- | --- | --- |
| CCCCOC(=O)[C@@H](C)Oc1ccc(Oc2ccc(C(F)(F)F)cn2)cc1 | inconclusive: 0.261 µM |  |
| Cc1nn(C)c(Oc2ccccc2)c1C=NOCc1ccc(C(=O)OC(C)(C)C)cc1 |  | inactive |
| CC1(C)C(C=C(Cl)Cl)C1C(=O)OCc1cccc(Oc2ccccc2)c1 (configuration not stated) |  | inactive |
| CSC(=O)c1cccc2nnsc12 |  | inactive |

System: not listed separately
Assay: Tanguay_ZF_120hpf_TR_legacy: (Legacy) Oregon State University Tanguay Lab 120 Hour Post-fertilization zebrafish Assay for Touch Response (AID 2283667)
How it was run: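 Tropical 5D wild-type zebrafish embryos statically exposed to 120 hpf at 28°C, sealed and dark-covered, 0.64% DMSO final; touch response scored as present/absent by brightfield microscopy at 120 hpf. Trimethyltin chloride 5 uM positive control; dead embryos not scored.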

| Structure (SMILES) | AC50 | outcome |
| --- | --- | --- |
| CCCCOC(=O)[C@@H](C)Oc1ccc(Oc2ccc(C(F)(F)F)cn2)cc1 | inconclusive: 45.6 µM |  |
| O=[N+]([O-])c1ccc(O)cc1 |  | inactive |
| CC(C)(O)c1ccc(CNC(=O)c2cccnc2Oc2ccc3nonc3c2)cc1 | inconclusive: 171 µM |  |
| NS(=O)(=O)c1cc2c(cc1Cl)NCNS2(=O)=O | inconclusive: 85.3 µM |  |
| CN(C)c1ccc(C(=C2C=CC(=[N+](C)C)C=C2)c2ccc(N(C)C)cc2)cc1 |  | inactive |
| C=CN1CCCC1=O | inconclusive: 158 µM |  |
| Clc1ccccc1C(c1ccccc1)(c1ccccc1)n1ccnc1 | active: 25 µM |  |
| N[C@@H](Cc1cc(I)c(Oc2ccc(O)c(I)c2)c(I)c1)C(=O)O | active: 7.63 µM |  |
| C[C@]12CC[C@@H]3c4ccc(O)cc4C[C@@H](CCCCCCCCCS(=O)CCCC(F)(F)C(F)(F)F)[C@H]3[C@@H]1CC[C@@H]2O (some centres not stated) |  | inactive |
| OC1CCC(C2CCCCC2)CC1 (configuration not stated) |  | inactive |
| O=c1[nH]c2ccc(S(=O)CCN3CCC(Cc4ccc(F)cc4)CC3)cc2o1 (configuration not stated) | inconclusive: 131 µM |  |
| N#C[C@@H]1CC(F)(F)CN1C(=O)CNC1CC2CCC(C1)N2c1ncccn1 (some centres not stated) | inconclusive: 201 µM |  |
| CCCCCCOCCO | inconclusive: 0.00891 µM |  |
| COc1ccc(OC(F)(F)F)cc1CN[C@H]1CCCN[C@H]1c1ccccc1 |  | inactive |
| O=C(O)c1cccc(Oc2ccccc2)c1 | inconclusive: 53.9 µM |  |
| CC1(C)C(C=C(Cl)Cl)C1C(=O)OCc1cccc(Oc2ccccc2)c1 (configuration not stated) | inconclusive: 199 µM |  |
| O=C=NCCCCCCN=C=O | inconclusive: 0.118 µM |  |
| CCCCCCCCCCCO |  | inactive |
| OC12N=C(c3ccccc3)SC1Cc1cc(Cl)ccc12 (configuration not stated) | active: 14.9 µM |  |
| CN1CCN(c2ccccc2/C=C2\SCCN(c3ccc(Cl)c(Cl)c3)C2=O)CC1 | inconclusive: 104 µM |  |
| Cc1cc(CCN2CCN(c3nsc4ccccc34)CC2)cc2c1NC(=O)CC2(C)C | active: 6.3 µM |  |
| CC[C@@H]1C[C@H](N(Cc2cc(C(F)(F)F)cc(C(F)(F)F)c2)C(C)=O)c2cc(C(F)(F)F)ccc2N1C(=O)OC(C)C | inconclusive: 44.5 µM |  |
| Cc1ccc(N)cc1O |  | inactive |

Reference: PubChem BioAssay (EPA / NIEHS)
